Measured values taken from PubChem BioAssay AID493014 (National Center for Advancing Translational Sciences (NCATS), 2011).
This is one part of the list. The main result of the screen is listed elsewhere. These columns were measured beside it and carry no call. The list favours compounds with an active or inconclusive main result. Words in brackets tell the shape of the fitted curve; partial curves, single points and poor fits give uncertain potencies.

Experiment: qHTS Assay to Find Inhibitors of Chronic Active B-Cell Receptor Signaling
Details: ABC-DLBCL IkBa-CBG/CBR reporter, luminescence ratio (green luciferase fused to IkBa over red control in TMD8 lymphoma cells), 4 h
Outline: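 TMD8 human ABC-DLBCL cells with doxycycline-inducible IκBα–green luciferase fusion and unfused red luciferase, in 0.5% FBS medium; compounds up to 46 uM, 4 h at 37C. Green/red luminescence ratio, filter-overlap corrected, fitted to concentration-response curves.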

[1] = measured here: CBR red luminescence, cell number

SMILES | AC50 [1] | AC50 (measured here: IkBa-CBG green luminescence)
COc1cccc(OC)c1C(=O)Nc1c(C(=O)N2CCN(c3ccccn3)CC2)oc2ccccc12 | 3.55 µM [rising, single point] | 
CC(C)C(=O)N/N=C/c1ccc(OCc2ccccc2)cc1 | 2.82 µM [rising, full curve, poor fit] | 
O=C(NCc1cccs1)C1CC(c2ccccc2O)=NO1 (stereo not given) | 14.6 µM [falling, partial curve] | 
C=CCOc1ccc(/C=C2\SC(=S)N(CCC(=O)O)C2=O)cc1 | 0.447 µM [falling, full curve, poor fit] | 
CCOc1ccccc1NC(=O)/C(C#N)=C/c1cccnc1 | 20 µM [falling, partial curve, poor fit] | 
O=C(CNC(=O)Cn1ccc2ccccc2c1=O)NCCCN1CCCCCC1 | 18.4 µM [rising, partial curve] | 
Cc1ccc(NC(=O)CSc2nnc(CCC(=O)O)c(=O)[nH]2)cc1 | 6.31 µM [falling, partial curve] | 
COc1ccc2nc(C(F)(F)Cl)c(C#N)c(N)c2c1 |  | 1.26 µM [rising, full curve, poor fit]
CC(=O)C1=NN(c2ccc(Cl)cc2)C(c2ccc3c(c2)OCO3)N(C(C)=O)N1C (stereo not given) | 35.5 µM [falling, single point] | 
CC1=NN(C(=O)c2ccccc2Cl)C(O)(c2cccnc2)C1 (stereo not given) | 3.55 µM [falling, partial curve] | 
NNCCc1ccccc1 | 0.82 µM [rising, full curve, poor fit] | 
Cn1c(=O)c2c(nc(SCC(=O)N3CCCCCC3)n2C)n(C)c1=O | 2.91 µM [falling, full curve] | 
C/C(=N\OCc1nc2ccccc2c(=O)n1/N=C/c1cc(C)cc([N+](=O)[O-])c1O)c1ccccc1 | 17.8 µM [falling, single point] | 
O=C(NC1CCCC1)c1cccc(Oc2ccccc2)c1 | 35.5 µM [rising, single point] | 
CC1(C)OC(c2ccccc2)=C/C(=C/C=Nc2ccccc2)O1 | 4.61 µM [falling, partial curve, poor fit] | 
COc1ccc(OCc2n[nH]c(=S)n2-c2ccc(C)cc2)cc1 | 35.5 µM [rising, single point] | 
CC1=NN(c2ccccc2)C(=O)C1N=Nc1ccc(N)cc1 (stereo not given) | 25.9 µM [rising, single point] | 
O=C(CSc1ccc2nnc(-c3ccncc3)n2n1)NCC1CCCO1 (stereo not given) | 35.5 µM [rising, single point] | 
COc1ccc(-c2csc(=NCCO)n2-c2ccccc2)cc1 | 0.1 µM [rising, full curve, poor fit] | 
O=C(N/N=C/c1ccccc1F)c1ccc(COc2ccccc2Cl)o1 | 10.3 µM [falling, partial curve, poor fit] | 
CC1(C)NC(=O)N(CC(=O)N2CCN(S(=O)(=O)c3ccccc3C(F)(F)F)CC2)C1=O | 16.4 µM [rising, partial curve, poor fit] | 
CC(C)c1ccc(-c2nc(N3CCCC3)nc3n[nH]c(N)c23)cc1 | 3.26 µM [rising, single point] | 

SMILES | AC50 [1] | AC50 (measured here: IkBa-CBG green luminescence)
C[C@H](CO)N1C[C@H](C)[C@@H](CN(C)C(=O)Nc2ccc3c(c2)OCO3)Oc2ccc(NS(=O)(=O)c3ccc(F)cc3)cc2C1=O | 2.59 µM [rising, full curve, poor fit] | 
CN(Cc1cccs1)c1ncnc2sccc12 | 6.51 µM [falling, single point] | 
CCOc1ccccc1C(=O)Nc1cccc(-c2nnc(-c3ccccc3)o2)c1 | 0.398 µM [rising, full curve, poor fit] | 
CC(C)c1ccc(O)c(NC(=S)NC(=O)c2ccc3c(c2)OCO3)c1 | 12.6 µM [falling, partial curve, poor fit] | 
O=C(NCCc1c[nH]c2ccccc12)c1cccc(Br)c1 | 12.6 µM [falling, single point] | 
CN(C)N1C(N)=C(C#N)C(c2cccc3ccccc23)C2=C1CC(c1ccccc1)CC2=O (stereo not given) | 4.11 µM [falling, partial curve, poor fit] | 
CCCCN(C(=O)Nc1ccc(OCC)cc1)C1CCN(C(C)=O)CC1 | 0.562 µM [rising, full curve, poor fit] | 
O=C(NNC(=S)NC(=O)c1ccco1)c1ccc(F)cc1 | 3.55 µM [falling, partial curve, poor fit] | 
CCOC(CCNC(=O)CCC(=O)Nc1ccc2nc(N3CCN(C)CC3)cc(C)c2c1)OCC | 35.5 µM [falling, single point] | 
O=C(NNC(=S)Nc1ccc(F)cc1)c1cccc([N+](=O)[O-])c1 | 1.26 µM [rising, partial curve, poor fit] | 
Cc1ccc(S(=O)(=O)CCC(=O)OCC(=O)Nc2ccc(N3CCOCC3)cc2)cc1 | 8.2 µM [falling, partial curve, poor fit] | 
c1ccc(-c2nnc(SCc3cn4ccsc4n3)o2)cc1 | 35.5 µM [falling, single point] | 
COCCCNCCOCCOc1ccc(C)cc1[N+](=O)[O-] | 22.4 µM [falling, single point] | 
COc1cccc(NC(=O)C(NCC(C)(C)CN(C)C)c2ccccc2)c1 (stereo not given) | 0.0231 µM [rising, full curve, poor fit] | 
CCOC(=O)c1cc2cc(CC(=O)c3ccc(OCC)cc3O)ccc2o1 | 2.31 µM [falling, full curve] | 
O=C(NCCC1=CCCCC1)c1ccc([N+](=O)[O-])cc1 | 2.59 µM [rising, partial curve] | 
CS(=O)(=O)Oc1ccc2c(c1)O/C(=C\c1cccnc1)C2=O | 2.51 µM [rising, partial curve] | 
O=c1oc2ccccc2c(O)c1Cc1cc(Cl)c2cccnc2c1O | 0.562 µM [falling, full curve, poor fit] | 
O=C(OCCCc1cc2ccccc2c(=O)o1)c1ccc2c(c1)OCO2 | 25.9 µM [rising, single point] | 
O=C1c2ccccc2C(Nc2ccc(S(=O)(=O)N3CCOCC3)cc2)N1Cc1ccco1 (stereo not given) | 6.51 µM [rising, single point] | 
OCCCCNCc1ccc(OCc2ccc(Cl)cc2Cl)cc1 | 35.5 µM [falling, single point] | 
Cc1ccc(SCCNC(=O)CN2C(=O)c3ccccc3S2(=O)=O)cc1 | 25.1 µM [rising, partial curve, poor fit] | 

SMILES | AC50 [1] | AC50 (measured here: IkBa-CBG green luminescence)
O=[N+]([O-])c1ccc(N2CCSCC2)cc1 | 11.2 µM [rising, partial curve, poor fit] | 
O=C(O)CSc1nc(SCc2ccccc2Cl)nc2c1CCCC2 | 1.64 µM [falling, full curve] | 
Clc1ccc(-c2noc(CSc3nnc(-c4ccncc4)n3-c3ccccc3)n2)cc1 | 29.1 µM [falling, single point] | 
O=C(CSc1nnc(-c2ccc(S(=O)(=O)N3CCOCC3)cc2)o1)c1ccccc1F | 0.316 µM [rising, full curve, poor fit] | 
Cc1c(Cl)cccc1NC(=O)c1cc(C2CC2)on1 | 12.6 µM [falling, partial curve] | 
COc1cc2nc(C3CCC3)nc(N3CCN(c4ccccc4OC)CC3)c2cc1OC | 29.1 µM [falling, single point] | 
O=C1/C(=C\c2ccc(O)cc2)SC(=S)N1Cc1ccccc1 | 17.8 µM [rising, single point] | 
O=C(OCC(=O)N1CCN(C(=O)c2ccco2)CC1)c1cccc(O)c1 | 0.0891 µM [falling, full curve, poor fit] | 
CCSc1nnc(-c2cccc(S(=O)(=O)N(CC)CC)c2)n1Cc1ccccc1 | 17.8 µM [falling, single point] | 
Cc1ccccc1N1C(=O)CC(N2CCN(C(=O)c3ccco3)CC2)C1=O (stereo not given) | 5.62 µM [rising, partial curve, poor fit] | 
COc1ccc(N2CC(=O)N(c3ccccc3)C2=S)cc1 | 16.4 µM [falling, single point] | 
O=C1NCCCC1C(=O)N/N=C/c1ccc(Cl)cc1 (stereo not given) | 5.01 µM [falling, partial curve, poor fit] | 
O=C(COC(=O)c1cc(-c2cccs2)nc2ccccc12)NCc1ccco1 | 17.8 µM [falling, single point] | 
COc1cc(OC)cc(C(=O)NC(=S)Nc2ccc3[nH]c(=O)[nH]c3c2)c1 | 3.16 µM [falling, partial curve, poor fit] | 
Cc1cc(NC(=O)COC(=O)Cn2c(C)csc2=O)ccc1Br | 3.98 µM [rising, partial curve] | 
CCN(C(=O)C1CCCN(c2nc(-c3ccc(OC)cc3)no2)C1)c1ccc(OC)cc1 (stereo not given) | 25.1 µM [falling, single point] | 
CN(C)c1ccc(/C=N/n2cnn(Cc3ccccc3Cl)c2=S)cc1 | 2.51 µM [rising, partial curve] | 
COc1ccc(C2=NN(C)C(=NCc3ccccc3)SC2)cc1 | 8.91 µM [rising, partial curve] | 
CCNc1ccc(S(=O)(=O)N(C)C)cc1NCC(=O)Nc1c(F)cccc1F | 4.61 µM [rising, partial curve, poor fit] | 
CC1=CC(C)(C)Nc2ccc(OS(=O)(=O)c3ccc(C)cc3)cc21 | 8.91 µM [rising, partial curve, poor fit] | 
COc1ccc2cc(CCNC(=O)c3ccco3)c(=O)[nH]c2c1 | 1.12 µM [rising, partial curve] | 

3 entries already listed, arranged by number of heavy atoms, ascending.
SMILES | AC50 [1] | AC50 (measured here: IkBa-CBG green luminescence)
COc1ccc(N2CC(=O)N(c3ccccc3)C2=S)cc1 | 16.4 µM [falling, single point] | 
O=C1/C(=C\c2ccc(O)cc2)SC(=S)N1Cc1ccccc1 | 17.8 µM [rising, single point] | 
O=C(COC(=O)c1cc(-c2cccs2)nc2ccccc12)NCc1ccco1 | 17.8 µM [falling, single point] | 
